This passage reports AC50 results from PubChem BioAssay AID1487 (National Center for Advancing Translational Sciences (NCATS), 2009).

The term AC50 denotes the midpoint of the concentration-response curve, whichever way the signal moves.

This assay can be described thus: qHTS Assay for Modulators of Lamin A Splicing. To be noted: HeLa LMNA splicing GFP/RFP minigene ratio, 48 h. The gist of the method: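 S3 HeLa cells stably expressing lamin A-EGFP splicing minigene plus DsRed2, 600 cells/well, 48 h compound exposure at 37C. Laser-scanning cytometry; analysed as GFP (500-530 nm)/RFP (575-640 nm) total intensity ratio; 0.5% DMSO vehicle.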
In general terms: Quantitative high-throughput screening tests each substance at several concentrations.

The mark [1] stands for this setting: measured here: GFP splicing reporter channel.
Where [2] appears, read: measured here: RFP viability control channel.

Some of the results follow. Shown are side measurements of this screen, not its main read-out; they come without a call. Compounds called inactive in the main read-out are mostly missing here. The note in brackets gives the kind of curve behind each potency; many fits are weak.

Regarding `CC1CC[C@@]2(C(=O)O)CC[C@]3(C)C(=CCC4[C@@]5(C)CCC(O)C(C)(C)C5CC[C@@]43C)C2C1C` (stereo partly drawn), the half-maximal activity concentration (AC50) is 12.6 µM [rising, single point] under setting [1] and 15.8 µM [rising, single point] under setting [2].

Take `CN=C(NC#N)NCCSC[C@H]1N=CN=C1C`: the AC50 is 0.251 µM [falling, partial curve] under setting [1] and 0.282 µM [falling, full curve, poor fit] under setting [2].

As to `COc1cccc(CNC(=O)C(=O)NCC(c2ccco2)S(=O)(=O)c2ccccc2)c1` (stereo not drawn), under setting [1], the concentration at half-maximal activity (AC50) was 2 µM [falling, full curve, poor fit].

For the molecule `CCn1c2ccccc2c2cc(/C=N/NC(=O)c3ccccc3)ccc21`, the AC50 is 7.08 µM [falling, partial curve] under setting [1] and 8.91 µM [falling, partial curve] under setting [2].

For the molecule `Cc1nn(-c2ccccc2)c2c1P(=O)(O)/C(=C1\N(C)c3ccccc3C1(C)C)C=N2`, the AC50 under setting [1] was 12.6 µM [rising, single point].

Turning to `Oc1cccc2c(NC(=S)Nc3ccc(OC(F)F)cc3)cccc12`, the AC50 was 1.58 µM [rising, partial curve, poor fit] under setting [1] and 2.51 µM [rising, full curve, poor fit] under setting [2].

For the molecule `CC1CCN(c2c(NCC3CCC(C(=O)NCCc4ccccc4)CC3)c(=O)c2=O)CC1` (stereo not drawn), under setting [1], the AC50 is 0.794 µM [falling, single point].

Consider `CCOC(=O)/C(C#N)=N/Nc1ccc(S(=O)(=O)N2CCc3ccccc32)cc1`, for which the AC50 runs as follows: under setting [1], 3.55 µM [rising, single point]; under setting [2], 11.2 µM [rising, partial curve].

On to `CCCCNC(=O)CSc1nc2cc3c(cc2c(=O)n1Cc1ccc(C(=O)NCCc2ccc(OC)c(OC)c2)cc1)OCO3`, for which the AC50 was 22.4 µM [rising, partial curve] under setting [1] and 14.1 µM [rising, partial curve, poor fit] under setting [2].

Take `CC(C)N(Cc1nc(-c2ccc(Cl)cc2)no1)C(=O)C(c1ccccc1)c1ccccc1`: the AC50 under setting [1] is 12.6 µM [rising, single point] and the AC50 under setting [2] is 12.6 µM [rising, single point].

For `CN(C)c1nc(SCc2ccc(Cl)cc2)nc2c1CCCC2`, the half-maximal activity concentration (AC50) under setting [2] is 12.6 µM [rising, partial curve].

For the molecule `CN(C)c1cccc2c1C(=O)c1ccccc1C2=O`, the concentration at half-maximal activity (AC50) under setting [2] is 14.1 µM [rising, partial curve, poor fit].

Take `CCOc1cc(CNCc2cccnc2)ccc1OCC(=O)NC(C)(C)C`: the AC50 under setting [1] was 0.447 µM [rising, full curve, poor fit].

As for `COc1ccc(-c2cc3ccc(O)c(CN4CCCC(C)C4)c3oc2=O)cc1OC` (stereo not drawn), the AC50 under setting [1] is 0.316 µM [falling, full curve, poor fit].

On to `CC1=C(c2ccc(C(C)C)cc2)S(=O)(=O)N=C1N1CCC(C(=O)Nc2ccc(C)cc2)CC1`, for which the half-maximal activity concentration (AC50) by setting is: under setting [1], 35.5 µM [falling, single point]; under setting [2], 25.1 µM [falling, partial curve].

Regarding `O=C(CSc1nc2ccccc2s1)Nc1cc(S(=O)(=O)N2CCOCC2)ccc1O`, the half-maximal activity concentration (AC50) under setting [2] was 10 µM [rising, single point].

`Cc1c(C(=O)NCc2ccc3c(c2)OCO3)oc2ccc(S(=O)(=O)N3CCCCCC3)cc12`: the half-maximal activity concentration (AC50) is 15.8 µM [rising, partial curve] under setting [1] and 12.6 µM [rising, partial curve] under setting [2].

On to `CC1(C)N=C(SCc2ccc(Cl)cc2)c2ccccc2N1`, for which the AC50 under setting [2] was 1.12 µM [rising, full curve, poor fit].

As to `CCn1c2ccccc2c2cc(NC(=O)c3ccco3)ccc21`, the AC50 is, setting by setting: under setting [1], 12.6 µM [rising, single point]; under setting [2], 14.1 µM [rising, single point].

Regarding `O=C(NCCc1ccccc1)C(=O)NCC(c1cccs1)S(=O)(=O)c1cccs1` (stereo not drawn), the concentration at half-maximal activity (AC50) under setting [2] is 2.82 µM [falling, partial curve].

On to `Clc1ccc2nnnc(-c3ccccc3)c2c1`, for which the half-maximal activity concentration (AC50) under setting [1] was 12.6 µM [rising, partial curve] and the AC50 under setting [2] is 3.16 µM [rising, single point].

Turning to `O=C1NC(=O)/C(=C\c2ccc(Oc3ccc([N+](=O)[O-])cn3)cc2)S1`, the AC50 under setting [2] was 15.8 µM [rising, single point].

With `COc1ccc(/C=C/C(=O)C23CC4CC(CC(C4)C2)C3)cc1CN1CCOCC1`, the concentration at half-maximal activity (AC50) reads like this: under setting [1], 22.4 µM [falling, single point]; under setting [2], 12.6 µM [falling, partial curve].

Consider `COc1ccc(NC(=O)Cn2c(=O)n(-c3ccccc3)c(=O)c3oc4ccccc4c32)c(OC)c1`, for which the concentration at half-maximal activity (AC50) under setting [1] was 0.0282 µM [rising, full curve, poor fit].

Regarding `COc1ccc(C(=O)/C=C/Nc2ccc(S(=O)(=O)Nc3nc(C)cc(C)n3)cc2)cc1OC`, under setting [2], the half-maximal activity concentration (AC50) was 10 µM [rising, partial curve, poor fit].

In the case of `Cc1ccc(Cl)cc1NC(=O)CN1C=NS(=O)(=O)c2ccccc21`, the half-maximal activity concentration (AC50) under setting [1] is 14.1 µM [rising, partial curve].

Regarding `CCOC(=O)c1cnc2c(OC)cccc2c1N1CCN(c2ccccn2)CC1`, the AC50 under setting [1] is 3.98 µM [falling, partial curve, poor fit].

`O=c1c2ccccc2nc(SCc2ccccc2)n1Cc1ccco1`: the AC50 under setting [1] is 22.4 µM [rising, single point] and the concentration at half-maximal activity (AC50) under setting [2] was 31.6 µM [rising, single point].

On to `C/C(=N/OCO/N=C(\C)c1ccccc1)c1ccccc1`, for which the AC50 under setting [2] was 17.8 µM [rising, single point].

Take `CCC(=O)N1CCCc2cc(S(=O)(=O)N3CCCc4ccccc43)ccc21`: the concentration at half-maximal activity (AC50) under setting [2] was 7.94 µM [rising, single point].

As for `COc1cc(NC(=O)C2CCCN(c3ncccn3)C2)cc(OC)c1` (stereo not drawn), the AC50 under setting [2] is 12.6 µM [rising, single point].

As to `CC(C)NC(=O)CSc1nnc(-c2ccc(C(C)(C)C)cc2)n1C`, the AC50 under setting [2] was 11.2 µM [rising, partial curve, poor fit].

As to `CC1(C)CC(=O)C2=C(C1)N(Cc1cccnc1)C(=O)C2(NC(=O)c1ccc(F)cc1)C(F)(F)F` (stereo not drawn), the AC50 under setting [2] is 35.5 µM [rising, single point].

For `CCN(C(=O)c1ccco1)c1nc(CC(=O)Nc2ccc(Cl)cc2)cs1`, the AC50 is 2 µM [rising, partial curve, poor fit] under setting [1] and 12.6 µM [rising, partial curve] under setting [2].
